Test results taken from the supplement of paper PMC10849652.
The list shows a part of the results.

Amino acid sequences for entries named in this document (tags omitted). A change or cut given only in a name is not applied to a line headed by its entry.
UniProt O15541: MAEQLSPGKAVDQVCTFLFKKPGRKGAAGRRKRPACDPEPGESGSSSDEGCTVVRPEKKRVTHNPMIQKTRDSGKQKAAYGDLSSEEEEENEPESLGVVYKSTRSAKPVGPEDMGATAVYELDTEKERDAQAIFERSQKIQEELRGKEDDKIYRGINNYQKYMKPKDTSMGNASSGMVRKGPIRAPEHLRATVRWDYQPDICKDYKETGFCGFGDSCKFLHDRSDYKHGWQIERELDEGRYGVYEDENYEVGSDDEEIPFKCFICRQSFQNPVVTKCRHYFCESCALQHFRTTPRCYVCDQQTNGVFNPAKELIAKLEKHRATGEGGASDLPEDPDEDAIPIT
UniProt Q96EP0: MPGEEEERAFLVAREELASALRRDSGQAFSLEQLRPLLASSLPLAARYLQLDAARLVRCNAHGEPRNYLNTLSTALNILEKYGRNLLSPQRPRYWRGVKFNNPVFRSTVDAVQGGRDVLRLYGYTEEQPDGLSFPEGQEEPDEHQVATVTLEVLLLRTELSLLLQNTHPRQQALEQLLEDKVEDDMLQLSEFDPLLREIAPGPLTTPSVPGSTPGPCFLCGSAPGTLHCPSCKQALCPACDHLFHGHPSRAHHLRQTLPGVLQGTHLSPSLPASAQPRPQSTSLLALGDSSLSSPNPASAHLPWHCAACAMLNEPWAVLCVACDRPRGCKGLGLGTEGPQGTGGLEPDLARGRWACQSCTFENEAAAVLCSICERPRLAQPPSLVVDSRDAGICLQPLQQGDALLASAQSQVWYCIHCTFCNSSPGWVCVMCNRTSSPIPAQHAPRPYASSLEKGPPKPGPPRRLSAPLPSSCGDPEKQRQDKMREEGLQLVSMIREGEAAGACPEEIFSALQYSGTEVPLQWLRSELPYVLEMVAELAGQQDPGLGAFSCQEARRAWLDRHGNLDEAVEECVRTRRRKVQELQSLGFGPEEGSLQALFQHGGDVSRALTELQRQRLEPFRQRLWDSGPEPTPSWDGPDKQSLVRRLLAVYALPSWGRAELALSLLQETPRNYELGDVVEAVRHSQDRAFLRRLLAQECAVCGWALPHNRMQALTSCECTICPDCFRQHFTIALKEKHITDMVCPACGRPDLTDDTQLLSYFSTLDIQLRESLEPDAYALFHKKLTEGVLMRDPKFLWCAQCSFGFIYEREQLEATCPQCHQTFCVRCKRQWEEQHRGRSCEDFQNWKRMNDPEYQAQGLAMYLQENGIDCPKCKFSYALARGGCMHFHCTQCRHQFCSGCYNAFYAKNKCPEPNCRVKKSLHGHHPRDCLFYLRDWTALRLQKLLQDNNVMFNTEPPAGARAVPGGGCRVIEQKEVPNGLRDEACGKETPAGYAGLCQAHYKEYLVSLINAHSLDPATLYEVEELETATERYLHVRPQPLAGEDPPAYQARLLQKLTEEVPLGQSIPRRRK
UniProt Q96NA2: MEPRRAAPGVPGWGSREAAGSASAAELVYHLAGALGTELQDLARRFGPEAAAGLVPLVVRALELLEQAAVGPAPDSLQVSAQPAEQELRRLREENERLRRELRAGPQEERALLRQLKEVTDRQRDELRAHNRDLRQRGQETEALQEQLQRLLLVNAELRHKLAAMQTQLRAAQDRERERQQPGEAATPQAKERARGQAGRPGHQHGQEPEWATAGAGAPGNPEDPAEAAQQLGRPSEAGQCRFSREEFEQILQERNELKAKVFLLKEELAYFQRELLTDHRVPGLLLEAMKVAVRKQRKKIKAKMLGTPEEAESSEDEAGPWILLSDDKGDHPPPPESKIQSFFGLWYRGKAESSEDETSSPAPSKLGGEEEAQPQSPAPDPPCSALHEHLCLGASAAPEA
UniProt Q5VTB9: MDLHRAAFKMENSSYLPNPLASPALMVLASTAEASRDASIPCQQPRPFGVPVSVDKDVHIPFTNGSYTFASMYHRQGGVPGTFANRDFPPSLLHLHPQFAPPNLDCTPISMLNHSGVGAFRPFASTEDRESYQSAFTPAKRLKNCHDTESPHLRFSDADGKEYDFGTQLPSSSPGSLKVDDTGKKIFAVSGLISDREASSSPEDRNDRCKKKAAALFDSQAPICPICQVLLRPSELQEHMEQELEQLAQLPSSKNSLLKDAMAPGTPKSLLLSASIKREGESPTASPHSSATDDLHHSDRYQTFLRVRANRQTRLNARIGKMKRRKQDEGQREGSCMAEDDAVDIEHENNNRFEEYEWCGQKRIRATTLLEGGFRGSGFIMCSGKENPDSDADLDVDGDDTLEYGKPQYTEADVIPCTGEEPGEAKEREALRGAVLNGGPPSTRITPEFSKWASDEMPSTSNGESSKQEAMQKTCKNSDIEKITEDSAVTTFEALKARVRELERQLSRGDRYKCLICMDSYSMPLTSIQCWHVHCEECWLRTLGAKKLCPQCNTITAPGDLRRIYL
UniProt O14730: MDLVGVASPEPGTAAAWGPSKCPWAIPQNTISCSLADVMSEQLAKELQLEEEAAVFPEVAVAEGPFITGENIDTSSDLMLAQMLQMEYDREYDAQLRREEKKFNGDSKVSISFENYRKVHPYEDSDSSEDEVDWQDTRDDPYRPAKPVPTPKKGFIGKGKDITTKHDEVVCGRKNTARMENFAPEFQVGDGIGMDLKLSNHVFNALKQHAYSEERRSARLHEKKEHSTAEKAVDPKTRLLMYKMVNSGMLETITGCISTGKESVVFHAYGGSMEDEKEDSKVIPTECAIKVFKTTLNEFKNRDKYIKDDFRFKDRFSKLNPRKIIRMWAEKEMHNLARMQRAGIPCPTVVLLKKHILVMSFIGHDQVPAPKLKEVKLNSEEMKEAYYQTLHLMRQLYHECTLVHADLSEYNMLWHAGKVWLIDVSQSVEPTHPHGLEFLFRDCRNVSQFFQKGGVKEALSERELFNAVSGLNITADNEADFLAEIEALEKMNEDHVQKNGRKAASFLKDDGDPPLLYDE
UniProt Q5XPI4: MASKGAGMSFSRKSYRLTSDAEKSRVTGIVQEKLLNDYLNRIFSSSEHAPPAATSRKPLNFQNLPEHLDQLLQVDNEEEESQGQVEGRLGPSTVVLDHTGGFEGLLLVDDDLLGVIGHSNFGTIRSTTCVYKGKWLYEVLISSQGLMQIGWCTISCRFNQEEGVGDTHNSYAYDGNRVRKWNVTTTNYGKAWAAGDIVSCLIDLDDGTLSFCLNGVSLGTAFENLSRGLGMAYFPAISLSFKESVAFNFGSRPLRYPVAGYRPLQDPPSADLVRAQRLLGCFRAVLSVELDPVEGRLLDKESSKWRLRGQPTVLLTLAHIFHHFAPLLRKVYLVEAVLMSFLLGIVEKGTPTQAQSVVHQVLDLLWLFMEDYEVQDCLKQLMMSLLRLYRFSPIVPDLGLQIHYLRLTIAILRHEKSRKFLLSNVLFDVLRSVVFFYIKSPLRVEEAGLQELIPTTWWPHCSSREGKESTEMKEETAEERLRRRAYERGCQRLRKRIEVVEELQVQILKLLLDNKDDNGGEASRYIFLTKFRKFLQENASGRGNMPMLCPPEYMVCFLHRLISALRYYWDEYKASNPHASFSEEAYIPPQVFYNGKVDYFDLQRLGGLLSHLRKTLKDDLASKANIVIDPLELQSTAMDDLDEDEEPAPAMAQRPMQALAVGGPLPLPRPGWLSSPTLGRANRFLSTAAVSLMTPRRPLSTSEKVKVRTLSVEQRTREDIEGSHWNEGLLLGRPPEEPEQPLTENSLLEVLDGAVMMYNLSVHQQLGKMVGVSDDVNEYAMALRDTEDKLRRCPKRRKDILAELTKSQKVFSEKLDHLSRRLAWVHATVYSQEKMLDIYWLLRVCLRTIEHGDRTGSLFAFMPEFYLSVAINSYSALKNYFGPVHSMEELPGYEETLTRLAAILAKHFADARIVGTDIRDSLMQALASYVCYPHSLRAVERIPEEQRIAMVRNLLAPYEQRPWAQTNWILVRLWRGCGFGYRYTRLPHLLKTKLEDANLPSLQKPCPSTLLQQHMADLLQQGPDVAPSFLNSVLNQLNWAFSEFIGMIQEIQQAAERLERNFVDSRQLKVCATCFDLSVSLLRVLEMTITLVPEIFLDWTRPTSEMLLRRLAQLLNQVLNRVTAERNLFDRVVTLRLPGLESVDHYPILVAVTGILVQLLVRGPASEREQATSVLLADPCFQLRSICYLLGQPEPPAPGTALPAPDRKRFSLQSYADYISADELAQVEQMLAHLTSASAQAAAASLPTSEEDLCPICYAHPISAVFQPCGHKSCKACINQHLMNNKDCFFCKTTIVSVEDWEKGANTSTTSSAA
UniProt O43353, whole entry, looked up: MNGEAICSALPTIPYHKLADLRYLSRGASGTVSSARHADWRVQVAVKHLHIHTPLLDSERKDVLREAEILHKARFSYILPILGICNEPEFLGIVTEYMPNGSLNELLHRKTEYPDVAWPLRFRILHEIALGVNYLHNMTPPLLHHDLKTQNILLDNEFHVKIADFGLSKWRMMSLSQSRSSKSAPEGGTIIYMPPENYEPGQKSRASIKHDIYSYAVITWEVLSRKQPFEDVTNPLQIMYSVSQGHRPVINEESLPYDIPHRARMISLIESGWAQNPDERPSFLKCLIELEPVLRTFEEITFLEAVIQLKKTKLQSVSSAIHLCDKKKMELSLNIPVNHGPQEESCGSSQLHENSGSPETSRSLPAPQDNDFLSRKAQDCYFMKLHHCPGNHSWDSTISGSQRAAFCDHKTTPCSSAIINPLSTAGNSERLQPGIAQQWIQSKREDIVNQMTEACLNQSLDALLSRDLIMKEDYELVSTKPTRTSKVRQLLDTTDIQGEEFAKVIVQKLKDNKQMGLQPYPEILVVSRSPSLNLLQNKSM
UniProt P35244: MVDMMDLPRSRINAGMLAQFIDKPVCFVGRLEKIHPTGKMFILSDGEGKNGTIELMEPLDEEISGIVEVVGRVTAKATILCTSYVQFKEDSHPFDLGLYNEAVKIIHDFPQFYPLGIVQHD
UniProt Q6R327, whole entry, looked up: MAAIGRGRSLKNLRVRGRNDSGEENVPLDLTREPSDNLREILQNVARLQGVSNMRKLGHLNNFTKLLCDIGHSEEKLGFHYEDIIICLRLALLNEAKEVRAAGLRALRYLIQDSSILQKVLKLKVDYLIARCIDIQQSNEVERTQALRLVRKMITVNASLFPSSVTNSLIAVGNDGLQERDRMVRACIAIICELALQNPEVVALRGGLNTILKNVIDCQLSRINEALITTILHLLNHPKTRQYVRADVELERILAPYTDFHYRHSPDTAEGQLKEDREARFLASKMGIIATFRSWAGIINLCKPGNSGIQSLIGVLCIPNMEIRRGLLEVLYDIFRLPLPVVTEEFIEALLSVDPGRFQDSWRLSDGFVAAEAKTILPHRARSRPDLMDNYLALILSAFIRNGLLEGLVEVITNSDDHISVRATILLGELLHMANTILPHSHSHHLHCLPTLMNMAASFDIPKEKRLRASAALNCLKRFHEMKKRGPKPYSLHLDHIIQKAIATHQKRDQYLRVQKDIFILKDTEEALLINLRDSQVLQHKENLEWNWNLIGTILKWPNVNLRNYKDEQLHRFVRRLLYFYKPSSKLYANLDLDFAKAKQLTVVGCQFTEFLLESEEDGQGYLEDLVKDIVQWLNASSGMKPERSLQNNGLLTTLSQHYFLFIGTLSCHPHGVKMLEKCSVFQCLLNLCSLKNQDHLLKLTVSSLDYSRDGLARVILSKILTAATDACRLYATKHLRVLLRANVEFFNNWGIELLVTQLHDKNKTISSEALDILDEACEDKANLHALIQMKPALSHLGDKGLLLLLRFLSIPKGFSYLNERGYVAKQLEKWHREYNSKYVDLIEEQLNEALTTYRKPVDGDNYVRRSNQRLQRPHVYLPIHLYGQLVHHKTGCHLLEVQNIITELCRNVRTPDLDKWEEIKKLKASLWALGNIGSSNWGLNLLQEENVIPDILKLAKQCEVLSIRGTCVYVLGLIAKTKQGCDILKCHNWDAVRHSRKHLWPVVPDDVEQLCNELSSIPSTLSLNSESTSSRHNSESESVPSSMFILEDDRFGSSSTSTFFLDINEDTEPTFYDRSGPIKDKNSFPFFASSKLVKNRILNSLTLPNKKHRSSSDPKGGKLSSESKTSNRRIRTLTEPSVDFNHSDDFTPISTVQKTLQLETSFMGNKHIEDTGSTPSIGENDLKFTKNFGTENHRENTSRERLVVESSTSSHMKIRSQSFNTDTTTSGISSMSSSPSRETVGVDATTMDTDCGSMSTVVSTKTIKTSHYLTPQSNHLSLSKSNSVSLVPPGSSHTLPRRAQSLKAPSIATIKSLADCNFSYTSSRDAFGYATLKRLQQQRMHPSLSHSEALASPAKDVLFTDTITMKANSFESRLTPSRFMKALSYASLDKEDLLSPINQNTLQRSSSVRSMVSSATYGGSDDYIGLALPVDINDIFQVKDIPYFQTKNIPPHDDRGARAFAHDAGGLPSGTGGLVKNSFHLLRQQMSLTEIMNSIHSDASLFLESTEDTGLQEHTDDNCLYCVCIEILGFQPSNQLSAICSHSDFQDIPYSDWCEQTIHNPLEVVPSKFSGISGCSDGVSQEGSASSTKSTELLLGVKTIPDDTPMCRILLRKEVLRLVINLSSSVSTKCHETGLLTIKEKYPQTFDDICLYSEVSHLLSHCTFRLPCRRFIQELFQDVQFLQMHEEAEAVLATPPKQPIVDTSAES

Experiments:
Assay in all cases: log2 fold change, soluble protein after heating vs DMSO (PISA); higher = thermal stabilisation; K562 lysate, 10 uM; active = over 0.2 and 3.5 SD of the protein, either way, in both replicates (recomputed)
[1] = compound: C#Cc1cccc(Nc2ncnc3cc(OCCOC)c(OCCOC)cc23)c1 [erlotinib]
How it was run: (§1)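 To prepare the extract, K562 pellets were dounce-homogenised in PBS pH 7.4 with 1 mM MgCl2, giving crude material at 1 mg/mL protein. This was treated with 10 μM compound for 30 min, then heated in aliquots for 3 min over 48°C-58°C before pooling and addition of NP-40 to 0.5% at 4°C. Centrifugation at 21,000xg for 90 min left soluble protein in the supernatant, which TMTpro 16plex LC-MS/MS quantified with equalised channel sums. Results are log-two fold changes in thermal stability compared with solvent controls, from duplicates.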

[2] = compound: C/C(=N\NC(=O)C1=CC(=CC=C1)S(=O)(=O)N2CCOCC2)/C3=C(C=CC(=C3)Cl)O
How it was run: as §1

[3] = compound: C1=CC(=CC=C1C2=NC3=C(N2)C=C(C=C3)C(=O)N)OC4=CC=C(C=C4)Cl
How it was run: as §1

[4] = compound: C1=CC2=C(C=CC(=C2)/C=C\3/C(=O)NC(=NCC4=CC=CS4)S3)N=C1
How it was run: as §1

[5] = compound: C1=CC2=NC=CN=C2C=C1/C=C/3\C(=O)NC(=O)S3
How it was run: as §1

[6] = compound: C1=CC=C(C=C1)C2=NC(=C(N2)C3=CC=NC=C3)C4=CC(=C(C=C4)Cl)O
How it was run: as §1

[7] = compound: C1=CC=C2C(=C1)C3=NNC4=CC=CC(=C43)C2=O
How it was run: as §1

[8] = compound: C1CCN(C1)C(=O)NC2=CC=CC(=C2)NC3=NC=C(C(=N3)NCCC4=CN=CN4)Br
How it was run: as §1

[9] = compound: C1CN(CCC1(CC2=CC=C(C=C2)Cl)N)C3=NC=NC4=C3C=CN4
How it was run: as §1

[10] = compound: C1COCCN1CCN2C3=CC=CC=C3N=C2NC(=O)C4=CC(=CC=C4)[N+](=O)[O-] [IRAK-1-4 Inhibitor I]
How it was run: as §1

Measured: log2 fold change

RPAP1 (UniProt Q9BWH6)
inactive: [1] 0.05 | [2] -0.078 | [3] 0.019 | [4] 0.016 | [5] 0.007 | [6] -0.028 | [7] 0.001 | [8] -0.001 | [9] 0.02 | [10] 0.005

RNF113A (UniProt O15541)
inactive: [1] -0.039 | [2] -0.039 | [3] 0.036 | [4] 0.027 | [5] -0.008 | [6] -0.01 | [7] -0.02 | [8] -0.005 | [9] 0.01 | [10] 0.02

RPL28 (UniProt P46779)
inactive: [1] -0.012 | [2] -0.104 | [3] 0.006 | [4] -0.009 | [5] -0.037 | [6] 0.019 | [7] 0.016 | [8] -0.003 | [9] 0 | [10] -0.02

RPL21 (UniProt P46778)
inactive: [1] -0.026 | [2] -0.04 | [3] -0.014 | [4] -0.015 | [5] -0.044 | [6] 0.02 | [7] 0 | [8] 0.008 | [9] -0.016 | [10] 0.032

RNF114 (UniProt Q9Y508)
inactive: [1] -0.009 | [2] -0.011 | [3] 0.017 | [4] 0.015 | [5] 0.007 | [6] -0.006 | [7] 0.006 | [8] 0.005 | [9] 0.013 | [10] -0.012

RNF31 (UniProt Q96EP0)
inactive: [1] 0.013 | [2] 0.004 | [3] 0.038 | [4] 0.002 | [5] -0.068 | [6] -0.013 | [7] 0.034 | [8] -0.033 | [9] 0.009 | [10] -0.064

RPL34 (UniProt P49207)
inactive: [1] -0.023 | [2] -0.307 | [3] -0.006 | [4] -0.009 | [5] -0.003 | [6] -0.02 | [7] 0.043 | [8] 0.045 | [9] -0.018 | [10] -0.017

RNGTT (UniProt O60942)
inactive: [1] -0.061 | [2] -0.021 | [3] 0.008 | [4] 0.003 | [5] 0.124 | [6] 0.002 | [7] -0.026 | [8] -0.004 | [9] -0.056 | [10] -0.04

RILP (UniProt Q96NA2)
inactive: [1] -0.074 | [2] 0.014 | [3] 0 | [4] -0.017 | [5] -0.014 | [6] -0.004 | [7] -0.006 | [8] -0.009 | [9] -0.024 | [10] -0.002

RNF220 (UniProt Q5VTB9)
inactive: [1] 0.016 | [2] -0.272 | [3] 0.022 | [4] 0.004 | [5] -0.02 | [6] -0.023 | [7] -0.018 | [8] -0.01 | [9] -0.018 | [10] 0.041

RIOK3 (UniProt O14730)
inactive: [1] 0.043 | [2] -0.114 | [3] -0.057 | [4] 0.029 | [5] -0.011 | [6] 0.023 | [7] 0.092 | [8] 0.016 | [9] -0.006 | [10] 0.016

RIPOR1 isoform 4 (UniProt Q6ZS17)
inactive: [1] -0.022 | [2] 0.02 | [3] 0.024 | [4] 0.056 | [5] 0.032 | [6] 0.001 | [7] 0.069 | [8] 0.015 | [9] -0.003 | [10] -0.017

RHOT1 isoform 3 (UniProt Q8IXI2)
inactive: [1] 0.022 | [2] 0.083 | [3] 0.018 | [4] -0.038 | [5] -0.021 | [6] 0.006 | [7] -0.131 | [8] 0.011 | [9] 0.065 | [10] 0.017

RPL22 (UniProt P35268)
inactive: [1] 0.007 | [2] 0.04 | [3] -0.003 | [4] -0.036 | [5] -0.005 | [6] -0.01 | [7] -0.018 | [8] 0.037 | [9] -0.022 | [10] 0.007

RNASEH2A (UniProt O75792)
inactive: [1] 0.026 | [2] 0.014 | [3] 0.005 | [4] -0.028 | [5] -0.011 | [6] 0.017 | [7] -0.005 | [8] -0.006 | [9] -0.032 | [10] -0.006

Reprinted from the results shown (2 entries):
RPL22 (UniProt P35268)
inactive: [1] 0.007 | [2] 0.04 | [3] -0.003 | [4] -0.036 | [5] -0.005 | [6] -0.01 | [7] -0.018 | [8] 0.037 | [9] -0.022 | [10] 0.007

RNASEH2A (UniProt O75792)
inactive: [1] 0.026 | [2] 0.014 | [3] 0.005 | [4] -0.028 | [5] -0.011 | [6] 0.017 | [7] -0.005 | [8] -0.006 | [9] -0.032 | [10] -0.006

More entries

RNF123 (UniProt Q5XPI4)
inactive: [1] 0.058 | [2] 0.016 | [3] -0.008 | [4] 0.029 | [5] 0.019 | [6] -0.015 | [7] -0.035 | [8] -0.005 | [9] 0.044 | [10] -0.019

RNASEH2B (UniProt Q5TBB1)
inactive: [1] -0.01 | [2] 0.006 | [3] -0.024 | [4] 0.019 | [5] -0.011 | [6] 0.009 | [7] 0.024 | [8] -0.01 | [9] -0.041 | [10] -0.003

RPL10 (UniProt P27635)
inactive: [1] 0.004 | [2] -0.134 | [3] -0.01 | [4] 0.001 | [5] 0.007 | [6] 0.018 | [7] 0.076 | [8] 0.039 | [9] -0.077 | [10] -0.015

RPL18 (UniProt Q07020)
inactive: [1] -0.032 | [2] -0.094 | [3] 0.026 | [4] -0.01 | [5] -0.045 | [6] 0 | [7] -0.005 | [8] -0.023 | [9] -0.03 | [10] -0.018

RPL31 (UniProt P62899)
inactive: [1] -0.018 | [2] -0.097 | [3] -0.03 | [4] -0.01 | [5] 0.001 | [6] 0 | [7] 0.038 | [8] 0.043 | [9] -0.039 | [10] 0.026

RNMT isoform 2 (UniProt O43148)
inactive: [1] -0.002 | [2] 0.001 | [3] 0.032 | [4] 0.038 | [5] 0.007 | [6] -0.003 | [7] -0.043 | [8] -0.025 | [9] 0.008 | [10] -0.022

RPL26L1 (UniProt Q9UNX3)
inactive: [1] -0.011 | [2] -0.047 | [3] -0.054 | [4] -0.001 | [5] -0.025 | [6] 0.03 | [7] 0.067 | [8] 0.055 | [9] -0.028 | [10] -0.016

RIC8B isoform 1 (UniProt Q9NVN3)
inactive: [1] 0.004 | [2] 0.01 | [3] 0.065 | [4] 0.039 | [5] 0.049 | [6] 0.036 | [7] 0.023 | [8] -0.096 | [9] 0.065 | [10] -0.041

RPL32 (UniProt P62910)
inactive: [1] -0.008 | [2] 0.068 | [3] -0.002 | [4] 0.056 | [5] -0.031 | [6] 0.02 | [7] 0.097 | [8] 0.101 | [9] 0.012 | [10] 0.009

RNF126 (UniProt Q9BV68)
inactive: [1] -0.036 | [2] 0.024 | [3] -0.204 | [4] 0.011 | [5] 0.047 | [6] 0.079 | [7] 0.026 | [8] -0.04 | [9] 0.002 | [10] -0.048

RPL27 (UniProt P61353)
inactive: [1] 0.002 | [2] -0.02 | [3] -0.04 | [4] -0.033 | [5] 0.011 | [6] 0.011 | [7] 0.03 | [8] 0.052 | [9] -0.014 | [10] -0.014

RPL11 (UniProt P62913)
inactive: [1] 0.005 | [2] -0.005 | [3] 0.056 | [4] 0.007 | [5] 0.002 | [6] 0 | [7] -0.058 | [8] -0.015 | [9] -0.008 | [10] 0.012

RIPK2 (UniProt O43353)
inactive: [1] 0.02 | [2] 0.321 | [3] 0.012 | [4] -0.02 | [5] -0.025 | [6] 0.048 | [7] -0.007 | [8] -0.004 | [9] 0.008 | [10] 0.002

RPA3 (UniProt P35244)
inactive: [1] -0.001 | [2] -0.05 | [3] 0.007 | [4] 0.038 | [5] 0.003 | [6] 0.007 | [7] 0.04 | [8] -0.031 | [9] 0.021 | [10] -0.035

RICTOR isoform 3 (UniProt Q6R327)
inactive: [1] -0.142 | [2] 0.238 | [3] 0.05 | [4] -0.192 | [5] 0.252 | [6] 0 | [7] 0.086 | [8] -0.009 | [9] -0.033 | [10] 0.001
